# Source: PubChem BioAssay AID2685 (National Center for Advancing Translational Sciences (NCATS), 2010)
# The other results are listed elsewhere or left out. Shown are side measurements of this screen, not its main read-out; they come without a call. The list favours compounds with an active or inconclusive main result. Words in brackets tell the shape of the fitted curve; partial curves, single points and poor fits give uncertain potencies.
# Assay: qHTS Assay for Lipid Storage Modulators in Drosophila S3 Cells;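 as to cell number change: cells counted by Cell Tracker Red CMTPX staining in the red channel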
# Settings: BODIPY lipid droplet fluorescence, 18-24 h; for cell number change: measured here: cell count max response, cells fed with added oleic acid
# How it was run: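 Drosophila S3 cells got compounds at several concentrations plus oleic acid (400 uM solution). Laser-scanning cytometry with 488 nm excitation read lipid droplets at 500-530 nm and cells at 575-640 nm. Percent activity was relative to 20 uM Triacsin C.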
# [1] = measured here: cell number channel AC50, cells fed with added oleic acid
# [2] = measured here: lipid fluorescence (Fed channel) AC50, cells fed with added oleic acid
SMILES,cell number change,AC50 [1],AC50 [2]
CC(=O)NC(CCS(C)(=O)=O)C(=O)Nc1cccc(C(C)=O)c1 (configuration not stated),-245%,"23.1 µM [falling, partial curve]","18.4 µM [falling, partial curve]"
CCCC(=O)c1ccc(N2CCN(C(=O)c3ccccc3Br)CC2)c(F)c1,-9.63%,–,–
OC(CCCN1CCCCC1)(c1ccccc1)c1ccccc1,–,–,"0.103 µM [falling, full curve, poor fit]"
Cc1ccccc1NC(=O)CN(C)S(=O)(=O)c1ccc2c(c1)n(C)c(=O)c(=O)n2C,–,–,"10.3 µM [falling, partial curve]"
COc1cc(S(=O)(=O)N2CCOCC2)ccc1NC(=O)COC(=O)C12CC3CC(CC(C3)C1)C2,-173%,"5.17 µM [falling, partial curve]","5.17 µM [falling, partial curve]"
CCN(CC)S(=O)(=O)c1ccc(C(=O)NC(C)(C)C)cc1,18.4%,–,"29.1 µM [rising, single point]"
CC1CCN(C(=O)c2ccc3c(c2NCCO)C(=O)c2ccccc2C3=O)CC1,-38.2%,"32.6 µM [falling, single point]",–
CC(C)(C)N(NS(=O)(=O)c1ccc(F)cc1)c1ccccc1,-4.26%,"3.26 µM [rising, single point]",–
COc1ccccc1CNC(=O)C(=O)NCC1OCCCN1S(=O)(=O)c1cccs1 (configuration not stated),24%,–,"20 µM [rising, single point]"
COc1ccc(CC(=O)NCCS(=O)(=O)N2CCN(c3ccccc3OC)CC2)cc1,-12.6%,–,"6.51 µM [rising, single point]"
O=C(CN1C(=O)CSc2ccc(S(=O)(=O)N3CCOCC3)cc21)NCc1ccc(F)cc1,4.45%,–,"0.00461 µM [rising, full curve, poor fit]"
O=C1N=C(N2CCCC2)S/C1=C\c1cccc(Br)c1,-38.6%,"32.6 µM [falling, partial curve, poor fit]",–
COC(=O)c1ccc(COc2ccccc2/C=N/NS(=O)(=O)c2ccc(C)cc2)cc1,94.4%,"29.1 µM [rising, single point]",–
CCOC(=O)C1=C(Cn2cnc3ccccc32)NC(=O)NC1c1ccc(Cl)cc1 (configuration not stated),14.7%,–,–
NC(=S)C1COc2ccccc2O1 (configuration not stated),-34.2%,–,"4.11 µM [falling, full curve]"
CC(Cc1cccs1)N(Cc1ccc(Cl)cc1)C(=O)c1ccncc1 (configuration not stated),-24.3%,–,"0.206 µM [falling, full curve]"
O=C(CCl)N(Cc1ccccc1)c1ccccc1,6%,–,"0.146 µM [falling, full curve, poor fit]"
CCOc1ccc(-c2c(C(=O)N/N=C/c3ccc(C)s3)nnn2-c2nonc2N)cc1,7.16%,–,"7.31 µM [falling, partial curve]"
CCOc1nc2cnccc2n(CC(=O)Nc2c(F)c(F)cc(F)c2F)c1=O,–,–,"6.51 µM [rising, single point]"
O=C(COC(=O)c1cc(S(=O)(=O)N2CCCCC2)ccc1N1CCOCC1)NC1CCCCC1,-30.7%,"9.2 µM [falling, partial curve]","29.1 µM [rising, single point]"

SMILES,cell number change,AC50 [1],AC50 [2]
CC1(C)CN(c2ccccc2)N(C(=O)c2ccc(F)cc2)C1=O,–,–,"29.1 µM [rising, single point]"
CC1=C(C)C(O)N(Cc2ccccc2)C1=O (configuration not stated),0.275%,–,"6.51 µM [rising, single point]"
COc1ccc(NC(=O)CCNS(=O)(=O)c2ccc3c(c2)CC(C)N3C(C)=O)cc1 (configuration not stated),-1.98%,–,"29.1 µM [rising, single point]"
O=S(=O)(Cc1ccccc1Cl)NCCc1ccc(F)cc1,-41.3%,"9.2 µM [falling, partial curve]",–
CCc1noc(C)c1C(=O)Nc1cc(C(F)(F)F)ccc1-n1cncn1,–,"0.651 µM [rising, single point]","0.731 µM [rising, single point]"
Cc1nc2ccccc2n1CC(O)COc1ccc(Br)cc1 (configuration not stated),-35%,"29.1 µM [falling, single point]","1.3 µM [falling, partial curve]"
Cc1ccc(C(=O)Nc2cc3ccccc3oc2=O)cc1,14.8%,–,–
Cc1ccc2cc(CN(CC3CCCO3)S(=O)(=O)c3c(C)ccc4nsnc34)c(=O)[nH]c2c1 (configuration not stated),13.3%,–,"1.46 µM [rising, full curve]"
CC1(c2ccc3ccccc3c2)NC(=O)N(CC(=O)N2CCCC(C(F)(F)F)C2)C1=O (configuration not stated),-1.07%,–,–
CCCOc1ccc(/C(O)=C2\C(=O)C(=O)N(c3ccccn3)C2c2ccccc2F)cc1C (configuration not stated),–,"0.164 µM [falling, full curve, poor fit]","0.58 µM [falling, single point]"
O=C(Nc1ccc(N2CCOCC2)c(Cl)c1)c1cc(F)c(F)cc1Cl,17%,–,–
CC(C)(C)c1ccc(C(=O)N2CCN(C(=O)C3CCCCC3)CC2)cc1,-2.37%,–,"0.259 µM [rising, full curve]"
Cc1cccc(/C(N)=N/OC(=O)c2ccc(F)cc2)c1,14%,–,"32.6 µM [rising, single point]"
COc1ccc(NC(=O)Cn2nnc(C(=O)NCc3ccc(C)cc3)c2N)cc1Cl,14.9%,–,"16.4 µM [rising, single point]"
COc1cccc(CNC(=O)CCC2CCCN(C(=O)c3cccc(Cl)c3)C2)c1 (configuration not stated),-34.8%,"29.1 µM [falling, single point]",–
CC(C)(C)NC(=O)NC(=O)COC(=O)Cn1c(C(F)(F)F)nc2ccccc21,–,–,"23.1 µM [falling, partial curve, poor fit]"
c1ccc(-c2nnsc2-c2nc3ccccc3[nH]2)cc1,-63%,"32.6 µM [falling, partial curve, poor fit]",–
Cc1cc(C)cc(N2C(=O)N(c3ccccc3C)C3CS(=O)(=O)CC32)c1 (configuration not stated),10.6%,–,"6.51 µM [falling, single point]"
Nc1nc(COc2ccc3ccccc3c2)cs1,-38.2%,"3.26 µM [falling, full curve]","2.59 µM [falling, full curve, poor fit]"
CN1CCN(c2c(F)cc3c(=O)c(C(=O)O)cn4c3c2OCN4C)CC1,-8.65%,–,–

# A draw from above in order of number of heavy atoms, ascending.
SMILES,cell number change,AC50 [1],AC50 [2]
COc1ccc(CC(=O)NCCS(=O)(=O)N2CCN(c3ccccc3OC)CC2)cc1,-12.6%,–,"6.51 µM [rising, single point]"
Cc1ccc2cc(CN(CC3CCCO3)S(=O)(=O)c3c(C)ccc4nsnc34)c(=O)[nH]c2c1 (configuration not stated),13.3%,–,"1.46 µM [rising, full curve]"
COc1cc(S(=O)(=O)N2CCOCC2)ccc1NC(=O)COC(=O)C12CC3CC(CC(C3)C1)C2,-173%,"5.17 µM [falling, partial curve]","5.17 µM [falling, partial curve]"

# Continued:

SMILES,cell number change,AC50 [1],AC50 [2]
COc1ccc(OCC(=O)N2CCN(C(=O)c3cccc4ccccc34)CC2)cc1,-12.5%,–,–
O=C(Nc1ccccn1)Nc1cccs1,–,"0.231 µM [rising, partial curve, poor fit]","11.6 µM [rising, partial curve, poor fit]"
O=C(NCC1CCCN(Cc2cccc(F)c2)C1)c1cccc2ccccc12 (configuration not stated),-18.9%,–,"23.1 µM [falling, single point]"
O=C(NCc1ccccc1)c1cc[n+]([O-])cc1,9.93%,–,"6.51 µM [rising, full curve]"
NC(=NCc1ccccc1)c1cccc([N+](=O)[O-])c1,–,–,"0.58 µM [falling, single point]"
Cc1nn(-c2ccccc2)c(Cl)c1C(=O)NCCCCNC(=O)c1c(C)nn(-c2ccccc2)c1Cl,20.7%,–,"6.51 µM [rising, single point]"
Cc1csc(=Nc2ccccc2)n1CCCN1CCCC1=O,31.7%,"14.1 µM [rising, single point]","10 µM [rising, partial curve]"
CC(C)[C@H](NC(=O)c1ccco1)C(=O)OCC(=O)Nc1cccc(F)c1,40.2%,"0.00731 µM [rising, full curve, poor fit]",–
CCN(CC)CCCN1C(=O)C(=O)/C(=C(/O)c2ccc3c(c2)OCCO3)C1c1ccc(C)o1 (configuration not stated),–,–,"0.291 µM [rising, partial curve]"
Cc1ccc(S(=O)(=O)CCC(=O)Nc2nc(-c3ccncc3)cs2)cc1,-4.48%,–,"0.731 µM [falling, single point]"
Cc1sc2nc(CN3CCOCC3)nc(NS(=O)(=O)c3cc(Cl)ccc3Cl)c2c1C,-5.89%,–,"0.116 µM [rising, full curve, poor fit]"
COc1ccc(OCc2nnc(SC(C)C(=O)Nc3nccs3)n2-c2ccccc2)cc1 (configuration not stated),-10.9%,–,"1.16 µM [rising, partial curve, poor fit]"
COc1ccc(NC(=O)C(Cc2ccccc2)n2cccc2)cc1 (configuration not stated),62.1%,"23.1 µM [rising, partial curve]",–
Cc1ccc(NC(=O)CSc2nnc(Cn3cnc4ccccc43)o2)cc1,-3.7%,–,"13 µM [falling, partial curve, poor fit]"
Cc1ccc(NC(=O)CCCCCN2C(=O)[C@@H]3Cc4ccccc4CN3C2=O)c(C)c1,19.3%,–,"29.1 µM [rising, partial curve]"
O=C(c1cc(F)ccc1F)C1CCCN(C(=O)CCCN2CCCCC2=O)C1 (configuration not stated),-28.4%,–,"5.17 µM [falling, full curve]"
CCOc1ccc(NC(=O)C2CCN(S(C)(=O)=O)CC2)cc1,7.62%,–,"0.58 µM [rising, single point]"
Cc1cc(SCC(=O)N/N=C/c2ccc(O)c(O)c2)nc2ccccc12,-13.2%,–,"29.1 µM [falling, single point]"
COC(=O)c1ccccc1NC(=O)CN1C(=O)CSC1=O,42.1%,"9.2 µM [rising, partial curve]",–
Cc1ccc(-c2nnc(SC(C)C#N)n2N)cc1 (configuration not stated),32%,"16.4 µM [rising, single point]",–
